Results taken from the supplement of paper PMC10849652.
The other results are listed elsewhere or left out.

Sequences of proteins named here, by UniProt entry; tags and fusion partners are left off. A change or cut given only in a name is not applied to a line headed by its entry.
UniProt P35236: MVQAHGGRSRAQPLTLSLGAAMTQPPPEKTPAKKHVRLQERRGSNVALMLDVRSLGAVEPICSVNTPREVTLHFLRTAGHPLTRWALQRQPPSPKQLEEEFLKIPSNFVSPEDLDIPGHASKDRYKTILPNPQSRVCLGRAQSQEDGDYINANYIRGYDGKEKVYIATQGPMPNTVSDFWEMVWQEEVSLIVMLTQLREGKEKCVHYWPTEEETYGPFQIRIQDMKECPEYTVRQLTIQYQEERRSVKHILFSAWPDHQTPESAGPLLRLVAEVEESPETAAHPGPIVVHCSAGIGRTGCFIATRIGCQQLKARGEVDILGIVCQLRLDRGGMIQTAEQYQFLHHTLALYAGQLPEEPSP
UniProt Q9P2W1: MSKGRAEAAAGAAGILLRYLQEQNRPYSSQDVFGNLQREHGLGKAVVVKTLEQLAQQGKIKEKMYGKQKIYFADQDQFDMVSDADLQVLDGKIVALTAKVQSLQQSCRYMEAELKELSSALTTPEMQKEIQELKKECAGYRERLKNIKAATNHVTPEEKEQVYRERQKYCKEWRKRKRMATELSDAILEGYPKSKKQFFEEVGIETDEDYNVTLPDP
UniProt P43686, whole entry, looked up: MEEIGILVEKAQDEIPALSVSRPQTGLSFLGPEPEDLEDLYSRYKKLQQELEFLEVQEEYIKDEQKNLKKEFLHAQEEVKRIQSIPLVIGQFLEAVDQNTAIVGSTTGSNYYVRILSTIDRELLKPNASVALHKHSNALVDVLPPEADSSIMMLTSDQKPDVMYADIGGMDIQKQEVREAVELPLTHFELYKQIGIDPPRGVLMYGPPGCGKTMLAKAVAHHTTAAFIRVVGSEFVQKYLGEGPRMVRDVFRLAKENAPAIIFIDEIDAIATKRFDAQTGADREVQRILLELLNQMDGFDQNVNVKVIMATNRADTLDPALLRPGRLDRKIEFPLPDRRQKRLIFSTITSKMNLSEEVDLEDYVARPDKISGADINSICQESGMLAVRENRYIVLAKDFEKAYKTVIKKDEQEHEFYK
UniProt P25787: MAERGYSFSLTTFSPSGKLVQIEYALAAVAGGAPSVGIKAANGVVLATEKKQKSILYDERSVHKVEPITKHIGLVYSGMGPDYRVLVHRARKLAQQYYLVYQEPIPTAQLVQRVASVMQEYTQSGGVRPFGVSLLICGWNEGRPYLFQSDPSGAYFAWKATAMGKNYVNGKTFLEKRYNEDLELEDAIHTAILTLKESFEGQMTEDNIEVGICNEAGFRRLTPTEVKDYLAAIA
UniProt O95997: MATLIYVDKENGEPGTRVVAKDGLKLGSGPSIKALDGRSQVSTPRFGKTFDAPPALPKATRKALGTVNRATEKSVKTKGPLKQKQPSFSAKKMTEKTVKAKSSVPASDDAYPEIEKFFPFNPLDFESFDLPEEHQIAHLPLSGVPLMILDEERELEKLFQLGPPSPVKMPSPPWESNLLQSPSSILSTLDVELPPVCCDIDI
UniProt Q96QR8: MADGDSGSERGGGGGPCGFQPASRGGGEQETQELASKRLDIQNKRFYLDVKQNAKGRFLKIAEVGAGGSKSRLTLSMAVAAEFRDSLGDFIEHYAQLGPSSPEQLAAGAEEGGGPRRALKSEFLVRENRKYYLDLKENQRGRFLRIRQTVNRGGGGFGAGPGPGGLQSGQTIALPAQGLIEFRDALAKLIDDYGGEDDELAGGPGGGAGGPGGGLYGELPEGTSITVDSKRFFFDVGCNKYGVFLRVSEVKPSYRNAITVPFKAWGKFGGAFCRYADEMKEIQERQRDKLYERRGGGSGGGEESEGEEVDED
UniProt Q8N0Z8: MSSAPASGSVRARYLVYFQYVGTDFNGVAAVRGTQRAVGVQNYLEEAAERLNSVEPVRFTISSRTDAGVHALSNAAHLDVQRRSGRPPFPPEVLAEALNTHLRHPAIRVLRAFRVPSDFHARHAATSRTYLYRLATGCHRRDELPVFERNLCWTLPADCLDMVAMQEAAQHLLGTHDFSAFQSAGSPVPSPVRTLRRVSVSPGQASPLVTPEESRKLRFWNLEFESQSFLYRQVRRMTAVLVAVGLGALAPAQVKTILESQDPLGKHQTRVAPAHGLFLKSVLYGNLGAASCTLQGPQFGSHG
UniProt P53801: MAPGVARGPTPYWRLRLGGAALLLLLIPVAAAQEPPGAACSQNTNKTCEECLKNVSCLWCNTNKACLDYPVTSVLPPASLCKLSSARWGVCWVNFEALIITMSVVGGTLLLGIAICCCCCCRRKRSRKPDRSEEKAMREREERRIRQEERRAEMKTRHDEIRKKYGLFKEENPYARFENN
UniProt Q93096: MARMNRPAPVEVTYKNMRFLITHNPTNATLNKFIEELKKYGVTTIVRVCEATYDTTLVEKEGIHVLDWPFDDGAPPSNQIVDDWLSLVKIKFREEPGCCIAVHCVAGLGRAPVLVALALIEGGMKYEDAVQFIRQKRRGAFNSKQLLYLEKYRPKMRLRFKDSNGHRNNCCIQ
UniProt Q96PZ0: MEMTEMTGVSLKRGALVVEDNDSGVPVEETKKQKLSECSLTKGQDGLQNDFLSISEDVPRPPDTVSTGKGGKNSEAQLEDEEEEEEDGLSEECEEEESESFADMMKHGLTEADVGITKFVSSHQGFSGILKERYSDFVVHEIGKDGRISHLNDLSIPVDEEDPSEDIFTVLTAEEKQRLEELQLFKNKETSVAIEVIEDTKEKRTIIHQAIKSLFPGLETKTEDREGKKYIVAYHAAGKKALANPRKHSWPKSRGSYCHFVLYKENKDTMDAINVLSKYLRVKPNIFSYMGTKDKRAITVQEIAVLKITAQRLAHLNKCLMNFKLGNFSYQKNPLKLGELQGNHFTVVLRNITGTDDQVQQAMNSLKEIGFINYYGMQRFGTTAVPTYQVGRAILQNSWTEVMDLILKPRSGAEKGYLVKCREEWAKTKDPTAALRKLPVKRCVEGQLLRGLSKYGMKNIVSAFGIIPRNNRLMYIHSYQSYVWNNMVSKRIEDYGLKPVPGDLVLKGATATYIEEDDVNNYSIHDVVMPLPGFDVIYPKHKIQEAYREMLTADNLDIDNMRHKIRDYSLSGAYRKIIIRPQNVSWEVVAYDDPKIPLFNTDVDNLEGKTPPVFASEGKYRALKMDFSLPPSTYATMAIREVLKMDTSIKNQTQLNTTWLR
UniProt O43242, whole entry, looked up: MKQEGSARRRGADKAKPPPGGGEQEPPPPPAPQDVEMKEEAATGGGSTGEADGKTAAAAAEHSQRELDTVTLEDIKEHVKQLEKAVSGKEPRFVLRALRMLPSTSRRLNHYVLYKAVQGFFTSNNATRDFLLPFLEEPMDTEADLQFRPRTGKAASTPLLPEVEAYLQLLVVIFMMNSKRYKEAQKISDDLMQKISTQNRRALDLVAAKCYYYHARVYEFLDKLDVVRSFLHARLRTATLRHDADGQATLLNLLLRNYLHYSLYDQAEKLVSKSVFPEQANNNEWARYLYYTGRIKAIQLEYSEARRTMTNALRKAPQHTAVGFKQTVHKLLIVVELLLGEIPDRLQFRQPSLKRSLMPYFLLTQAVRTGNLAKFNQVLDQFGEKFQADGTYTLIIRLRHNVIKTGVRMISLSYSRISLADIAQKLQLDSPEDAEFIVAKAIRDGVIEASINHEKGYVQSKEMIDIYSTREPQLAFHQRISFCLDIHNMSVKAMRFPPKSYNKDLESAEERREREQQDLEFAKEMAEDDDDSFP
UniProt O75832: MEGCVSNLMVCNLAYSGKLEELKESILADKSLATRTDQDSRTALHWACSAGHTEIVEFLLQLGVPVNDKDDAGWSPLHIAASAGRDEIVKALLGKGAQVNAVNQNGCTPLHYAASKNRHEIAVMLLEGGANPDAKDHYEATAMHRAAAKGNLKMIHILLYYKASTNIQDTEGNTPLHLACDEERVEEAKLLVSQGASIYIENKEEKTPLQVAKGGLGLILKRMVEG
UniProt Q8TB72: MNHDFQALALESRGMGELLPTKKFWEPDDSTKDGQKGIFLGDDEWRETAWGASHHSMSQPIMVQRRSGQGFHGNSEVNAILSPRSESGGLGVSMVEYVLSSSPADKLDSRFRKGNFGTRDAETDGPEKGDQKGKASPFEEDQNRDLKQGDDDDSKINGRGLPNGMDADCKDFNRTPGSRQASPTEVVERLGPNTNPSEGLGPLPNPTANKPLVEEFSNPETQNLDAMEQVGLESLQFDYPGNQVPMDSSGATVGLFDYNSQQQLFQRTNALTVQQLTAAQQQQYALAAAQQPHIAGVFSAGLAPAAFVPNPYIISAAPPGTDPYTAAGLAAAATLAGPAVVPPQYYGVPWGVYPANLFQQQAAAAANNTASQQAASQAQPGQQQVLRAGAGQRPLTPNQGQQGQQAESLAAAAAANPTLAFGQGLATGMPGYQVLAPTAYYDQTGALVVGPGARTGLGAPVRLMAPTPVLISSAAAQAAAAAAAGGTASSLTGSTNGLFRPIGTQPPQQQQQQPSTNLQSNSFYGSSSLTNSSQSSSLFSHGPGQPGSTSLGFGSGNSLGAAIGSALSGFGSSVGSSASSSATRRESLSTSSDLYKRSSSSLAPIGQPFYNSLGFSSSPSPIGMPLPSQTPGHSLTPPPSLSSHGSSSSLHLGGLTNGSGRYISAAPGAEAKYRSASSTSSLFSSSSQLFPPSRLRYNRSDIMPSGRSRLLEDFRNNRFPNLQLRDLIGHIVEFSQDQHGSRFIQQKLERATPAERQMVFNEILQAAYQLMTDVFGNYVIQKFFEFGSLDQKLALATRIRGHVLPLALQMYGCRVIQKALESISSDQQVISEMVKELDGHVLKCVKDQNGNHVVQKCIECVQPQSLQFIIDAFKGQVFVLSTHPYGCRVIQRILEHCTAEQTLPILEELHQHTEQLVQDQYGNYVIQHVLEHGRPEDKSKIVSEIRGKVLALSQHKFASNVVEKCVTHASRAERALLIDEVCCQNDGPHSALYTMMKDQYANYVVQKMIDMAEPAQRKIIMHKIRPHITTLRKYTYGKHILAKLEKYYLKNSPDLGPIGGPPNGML
UniProt P51665: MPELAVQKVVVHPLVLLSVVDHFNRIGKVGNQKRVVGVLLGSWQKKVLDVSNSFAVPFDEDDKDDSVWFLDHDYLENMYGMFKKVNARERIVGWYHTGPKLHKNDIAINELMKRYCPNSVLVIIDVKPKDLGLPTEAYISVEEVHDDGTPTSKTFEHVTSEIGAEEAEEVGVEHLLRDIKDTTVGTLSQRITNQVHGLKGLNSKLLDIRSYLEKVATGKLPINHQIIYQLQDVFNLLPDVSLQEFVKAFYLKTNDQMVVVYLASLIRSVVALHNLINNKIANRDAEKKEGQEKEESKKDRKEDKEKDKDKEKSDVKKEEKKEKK
UniProt Q7Z6K3: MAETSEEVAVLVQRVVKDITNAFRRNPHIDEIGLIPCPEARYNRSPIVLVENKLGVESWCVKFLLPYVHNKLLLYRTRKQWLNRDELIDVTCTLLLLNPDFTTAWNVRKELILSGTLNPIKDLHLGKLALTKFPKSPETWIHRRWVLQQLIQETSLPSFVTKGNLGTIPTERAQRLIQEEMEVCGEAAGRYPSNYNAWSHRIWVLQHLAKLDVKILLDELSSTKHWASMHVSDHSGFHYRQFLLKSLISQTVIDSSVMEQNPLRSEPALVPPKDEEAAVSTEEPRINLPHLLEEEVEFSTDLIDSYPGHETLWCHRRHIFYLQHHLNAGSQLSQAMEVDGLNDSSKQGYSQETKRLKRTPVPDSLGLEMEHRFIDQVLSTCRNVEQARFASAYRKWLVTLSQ
UniProt Q8WUK0: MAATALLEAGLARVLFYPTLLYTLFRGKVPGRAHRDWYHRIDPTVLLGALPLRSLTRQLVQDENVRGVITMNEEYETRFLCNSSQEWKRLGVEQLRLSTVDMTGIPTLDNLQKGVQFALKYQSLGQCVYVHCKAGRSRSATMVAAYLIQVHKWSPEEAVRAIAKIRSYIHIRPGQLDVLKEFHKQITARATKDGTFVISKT
UniProt Q9UNM6: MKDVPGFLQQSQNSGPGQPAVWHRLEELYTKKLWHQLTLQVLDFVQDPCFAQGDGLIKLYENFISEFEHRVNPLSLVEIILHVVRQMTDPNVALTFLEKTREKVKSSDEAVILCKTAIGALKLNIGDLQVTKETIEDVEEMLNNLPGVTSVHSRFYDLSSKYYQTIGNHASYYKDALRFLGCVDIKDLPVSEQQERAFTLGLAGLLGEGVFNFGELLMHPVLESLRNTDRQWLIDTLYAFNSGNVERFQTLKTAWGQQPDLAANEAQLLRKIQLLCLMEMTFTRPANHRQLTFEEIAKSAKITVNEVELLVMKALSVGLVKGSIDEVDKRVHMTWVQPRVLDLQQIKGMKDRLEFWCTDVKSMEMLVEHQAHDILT
UniProt O00487, whole entry, looked up: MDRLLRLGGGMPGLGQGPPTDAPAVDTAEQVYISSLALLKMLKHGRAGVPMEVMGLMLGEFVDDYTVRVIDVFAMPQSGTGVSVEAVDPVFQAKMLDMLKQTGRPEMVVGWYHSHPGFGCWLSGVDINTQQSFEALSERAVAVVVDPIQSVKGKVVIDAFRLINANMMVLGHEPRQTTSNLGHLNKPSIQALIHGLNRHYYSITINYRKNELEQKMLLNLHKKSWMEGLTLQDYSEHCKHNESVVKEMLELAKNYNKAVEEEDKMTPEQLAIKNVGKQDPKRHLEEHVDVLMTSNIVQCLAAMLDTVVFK

Key:
Experiment in all cases: log2 fold change, soluble protein after heating vs DMSO (PISA); higher = thermal stabilisation; K562 lysate, 10 uM; active = over 0.2 and 3.5 SD of the protein, either way, in both replicates (recomputed)
[1] = compound: C=CC(=O)N1CCC[C@@H](n2nc(-c3ccc(Oc4ccccc4)cc3)c3c(N)ncnc32)C1 [ibrutinib]
How it was run: (§1)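 The values are log-two fold changes in thermal stability compared with solvent controls and come from duplicates. They were obtained by TMTpro 16plex LC-MS/MS, with channel sums equalised, on the supernatant after 21,000xg for 90 min. That supernatant came from crude K562 extract at 1 mg/mL protein treated with 10 μM compound for 30 min, heated for 3 min across 48°C-58°C, pooled and brought to 0.5% NP-40 at 4°C.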

[2] = compound: CC(=O)c1cnc2ccc(-c3cc(Cl)c(O)c(Cl)c3)nc2c1N[C@H]1CC[C@H](CN(C)C)CC1
How it was run: as §1

[3] = compound: CC(C)(C)Cn1c(N)nc2ccc(-c3[nH]c(C(C)(C)C)nc3-c3ccc(F)cc3)nc21 [ralimetinib]
How it was run: as §1

[4] = compound: CC(C)(O)CC(=O)NCCn1ccc2ncnc(Nc3ccc(Oc4cccc(C(F)(F)F)c4)c(Cl)c3)c21
How it was run: as §1

[5] = compound: CC(C)C1=C2N=C(C=C(N2N=C1)NCC3=CC=CC=C3)NCCCCCCN
How it was run: as §1

[6] = compound: CC1=C(C(CC(=O)N1)C2=CC=C(C=C2)C(F)(F)F)C(=O)NC3=C(C=C4C(=C3)C=NN4)F
How it was run: as §1

[7] = compound: CC1=C(C2=C(C=C1)C(=O)C3=CC=CC=C3N2CCCN)C
How it was run: as §1

[8] = compound: CC1=C(C=C(C=C1)NC(=O)C2=CC(=CC=C2)C(C)(C)C#N)NC3=CC4=C(C=C3)N=CN(C4=O)C
How it was run: as §1

[9] = compound: CC1=C(C=C(C=C1)NC(=O)C2=CC(=CC=C2)N(C)C)NC(=O)C3=CC=C(C=C3)O
How it was run: as §1

[10] = compound: CC1=CC=C(C=C1)SC2=C3C=C(SC3=CN=C2)C(=O)N
How it was run: as §1

Measured: log2 fold change

PTPN7 isoform 3 (UniProt P35236)
inactive: [1] 0.018 | [2] 0.027 | [3] 0.066 | [4] -0.021 | [5] -0.044 | [6] -0.023 | [7] -0.053 | [8] -0.07 | [9] 0.005 | [10] 0.032

PSMB9 (UniProt P28065)
inactive: [1] -0.073 | [2] -0.196 | [3] 0.052 | [4] -0.01 | [5] 0.011 | [6] 0.003 | [7] -0.047 | [8] 0.096 | [9] -0.027 | [10] -0.178

PUS7L (UniProt Q9H0K6)
inactive: [1] 0.029 | [2] 0.007 | [3] 0.005 | [4] -0.047 | [5] 0.011 | [6] 0.008 | [7] -0.02 | [8] -0.03 | [9] 0.008 | [10] 0.024

PSMC3IP (UniProt Q9P2W1)
inactive: [1] -0.041 | [2] 0.044 | [3] 0.058 | [4] 0.015 | [5] -0.029 | [6] -0.014 | [7] -0.036 | [8] -0.029 | [9] 0.039 | [10] -0.027

PWP2 (UniProt Q15269)
inactive: [1] 0.003 | [2] -0.021 | [3] 0.048 | [4] 0.027 | [5] 0.009 | [6] 0.037 | [7] -0.014 | [8] -0.035 | [9] 0.018 | [10] 0.015

PSMC4 (UniProt P43686)
inactive: [1] -0.016 | [2] 0.003 | [3] 0.024 | [4] 0 | [5] 0.003 | [6] -0.017 | [7] 0 | [8] -0.003 | [9] -0.001 | [10] 0.019

PSMA2 (UniProt P25787)
inactive: [1] -0.009 | [2] 0.006 | [3] -0.013 | [4] -0.004 | [5] 0.005 | [6] -0.028 | [7] 0.008 | [8] 0.007 | [9] 0.009 | [10] 0.008

PTTG1 (UniProt O95997)
inactive: [1] 0.021 | [2] 0.022 | [3] -0.02 | [4] -0.063 | [5] 0.017 | [6] -0.039 | [7] -0.006 | [8] 0.099 | [9] -0.038 | [10] 0.059

PURB (UniProt Q96QR8)
inactive: [1] 0.02 | [2] 0.002 | [3] 0.02 | [4] -0.009 | [5] -0.038 | [6] 0.008 | [7] -0.032 | [8] -0.044 | [9] 0.017 | [10] 0

PUSL1 (UniProt Q8N0Z8)
inactive: [1] -0.053 | [2] -0.039 | [3] 0.002 | [4] -0.03 | [5] -0.031 | [6] -0.064 | [7] 0.146 | [8] -0.019 | [9] -0.075 | [10] 0.078

PTTG1IP (UniProt P53801)
inactive: [1] -0.039 | [2] -0.079 | [3] -0.089 | [4] -0.022 | [5] -0.066 | [6] 0.051 | [7] 0.123 | [8] -0.246 | [9] -0.009 | [10] -0.036

PTP4A1 (UniProt Q93096)
inactive: [1] 0.011 | [2] 0.027 | [3] 0.015 | [4] -0.071 | [5] -0.031 | [6] -0.113 | [7] -0.007 | [8] -0.012 | [9] -0.048 | [10] 0

PUS7 isoform 2 (UniProt Q96PZ0)
inactive: [1] 0.015 | [2] -0.011 | [3] 0 | [4] -0.011 | [5] 0.003 | [6] -0.017 | [7] -0.03 | [8] 0.011 | [9] -0.005 | [10] -0.003

PSMD3 (UniProt O43242)
inactive: [1] -0.017 | [2] -0.005 | [3] 0.012 | [4] 0.02 | [5] 0.002 | [6] -0.017 | [7] -0.008 | [8] -0.015 | [9] -0.005 | [10] 0.024

PRRC2A (UniProt P48634)
active: [8] -0.26
inactive: [1] 0.006 | [2] -0.014 | [3] -0.01 | [4] -0.02 | [5] 0.002 | [6] 0.015 | [7] -0.003 | [9] 0.003 | [10] -0.026

PSMD10 (UniProt O75832)
inactive: [1] -0.002 | [2] 0.005 | [3] 0.007 | [4] -0.016 | [5] 0.028 | [6] -0.07 | [7] 0.025 | [8] 0.005 | [9] -0.012 | [10] 0.01

PUM2 (UniProt Q8TB72)
inactive: [1] -0.018 | [2] 0.013 | [3] 0.095 | [4] -0.022 | [5] 0.076 | [6] 0.089 | [7] 0 | [8] -0.186 | [9] 0.029 | [10] 0.025

PTCD3 (UniProt Q96EY7)
inactive: [1] -0.023 | [2] -0.016 | [3] -0.001 | [4] 0.032 | [5] 0.028 | [6] -0.017 | [7] -0.128 | [8] -0.005 | [9] 0.02 | [10] -0.008

PSMC1 (UniProt P62191)
inactive: [1] -0.013 | [2] -0.008 | [3] 0.016 | [4] 0.01 | [5] -0.01 | [6] 0.002 | [7] 0.014 | [8] -0.001 | [9] 0.004 | [10] 0.012

PSMD7 (UniProt P51665)
inactive: [1] -0.023 | [2] -0.01 | [3] 0.003 | [4] -0.044 | [5] -0.011 | [6] 0.011 | [7] 0.003 | [8] -0.001 | [9] 0 | [10] 0.019

PTGS1 isoform 6 (UniProt P23219)
inactive: [1] 0.109 | [2] 0.022 | [3] -0.001 | [4] -0.075 | [5] -0.043 | [6] 0.023 | [7] -0.039 | [8] 0.023 | [9] -0.011 | [10] -0.026

PTAR1 (UniProt Q7Z6K3)
inactive: [1] 0.02 | [2] -0.012 | [3] 0.004 | [4] -0.032 | [5] 0.002 | [6] -0.021 | [7] -0.01 | [8] 0.001 | [9] 0.023 | [10] -0.048

PTPMT1 (UniProt Q8WUK0)
inactive: [1] -0.033 | [2] 0.048 | [3] -0.105 | [4] 0.1 | [5] 0.029 | [6] -0.067 | [7] -0.025 | [8] 0.041 | [9] 0.049 | [10] 0.055

PSEN1 (UniProt P49768)
inactive: [1] 0.051 | [2] 0.036 | [3] -0.011 | [4] 0.107 | [5] 0.038 | [6] -0.123 | [7] -0.067 | [8] 0.019 | [9] -0.016 | [10] -0.027

PTMA isoform 2 (UniProt P06454)
inactive: [1] -0.053

PSMD11 (UniProt O00231)
inactive: [1] 0.003 | [2] -0.001 | [3] 0.008 | [4] -0.003 | [5] -0.005 | [6] -0.027 | [7] 0.026 | [8] -0.011 | [9] -0.004 | [10] 0.025

PSMD13 (UniProt Q9UNM6)
inactive: [1] -0.016 | [2] 0.015 | [3] 0.029 | [4] 0 | [5] -0.009 | [6] -0.02 | [7] 0.025 | [8] 0.012 | [9] -0.006 | [10] 0.026

PWP1 (UniProt Q13610)
inactive: [1] 0.022 | [2] -0.017 | [3] 0.012 | [4] -0.011 | [5] -0.02 | [6] -0.053 | [7] -0.025 | [8] -0.009 | [9] 0.032 | [10] -0.001

PSMF1 (UniProt Q92530)
inactive: [1] 0.002 | [2] -0.013 | [3] -0.037 | [4] -0.074 | [5] 0.002 | [6] 0.03 | [7] 0.011 | [8] 0.107 | [9] -0.034 | [10] -0.029

Random excerpt: 2 records from the list.
PSMD13 (UniProt Q9UNM6)
inactive: [1] -0.016 | [2] 0.015 | [3] 0.029 | [4] 0 | [5] -0.009 | [6] -0.02 | [7] 0.025 | [8] 0.012 | [9] -0.006 | [10] 0.026

PSMF1 (UniProt Q92530)
inactive: [1] 0.002 | [2] -0.013 | [3] -0.037 | [4] -0.074 | [5] 0.002 | [6] 0.03 | [7] 0.011 | [8] 0.107 | [9] -0.034 | [10] -0.029

(listing goes on)

PSMD14 (UniProt O00487)
inactive: [1] 0.007 | [2] -0.014 | [3] -0.051 | [4] 0.001 | [5] 0.003 | [6] 0.005 | [7] -0.007 | [8] -0.027 | [9] -0.003 | [10] 0.017
